No constants are given. Whether binding was seen depends on the method and setting. Binding seen in cells or lysates may run through a third protein. Some results given as binding are weak or reduced against the parent protein; the word gives no strength. Where a sequence is shown, tags or fusion partners need not be part of it.

By UniProt entry, the sequences of proteins in these tests, tags left out.
UniProt Q9Z148: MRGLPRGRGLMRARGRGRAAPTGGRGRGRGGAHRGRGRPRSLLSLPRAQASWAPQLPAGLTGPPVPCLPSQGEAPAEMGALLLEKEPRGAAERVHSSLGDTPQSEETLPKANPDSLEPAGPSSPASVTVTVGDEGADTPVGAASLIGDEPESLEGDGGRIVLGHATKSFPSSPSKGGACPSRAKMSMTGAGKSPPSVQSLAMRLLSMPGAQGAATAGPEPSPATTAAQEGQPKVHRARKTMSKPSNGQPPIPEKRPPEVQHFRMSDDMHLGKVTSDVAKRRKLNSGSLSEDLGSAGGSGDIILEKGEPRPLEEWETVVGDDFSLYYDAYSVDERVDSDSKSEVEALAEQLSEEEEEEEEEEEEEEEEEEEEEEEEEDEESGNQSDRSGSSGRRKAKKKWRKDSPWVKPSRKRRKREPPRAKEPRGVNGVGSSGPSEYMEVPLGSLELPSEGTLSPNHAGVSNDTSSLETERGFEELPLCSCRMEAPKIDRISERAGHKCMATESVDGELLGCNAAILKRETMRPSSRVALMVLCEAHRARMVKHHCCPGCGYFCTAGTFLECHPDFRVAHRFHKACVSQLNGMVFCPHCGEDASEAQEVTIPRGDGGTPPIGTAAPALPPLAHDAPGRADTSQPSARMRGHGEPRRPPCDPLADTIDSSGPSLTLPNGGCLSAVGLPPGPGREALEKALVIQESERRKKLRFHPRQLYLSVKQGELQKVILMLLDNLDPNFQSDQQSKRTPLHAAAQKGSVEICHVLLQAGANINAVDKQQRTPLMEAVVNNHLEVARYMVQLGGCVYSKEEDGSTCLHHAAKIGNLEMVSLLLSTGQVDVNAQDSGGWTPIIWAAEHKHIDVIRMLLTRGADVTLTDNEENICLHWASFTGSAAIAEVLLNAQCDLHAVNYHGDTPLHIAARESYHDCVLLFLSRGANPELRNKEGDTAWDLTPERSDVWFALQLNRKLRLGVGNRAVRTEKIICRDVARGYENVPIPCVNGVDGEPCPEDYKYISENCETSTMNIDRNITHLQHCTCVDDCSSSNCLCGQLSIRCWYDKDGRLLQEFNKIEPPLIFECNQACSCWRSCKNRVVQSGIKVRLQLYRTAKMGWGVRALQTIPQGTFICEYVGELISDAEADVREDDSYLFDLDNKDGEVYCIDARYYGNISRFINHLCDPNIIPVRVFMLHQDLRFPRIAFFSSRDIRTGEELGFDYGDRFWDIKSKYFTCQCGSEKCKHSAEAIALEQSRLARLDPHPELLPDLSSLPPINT

For one substance, binding results are on record in paper PMC10366109.

This test concerns the target T1, Flag-ZFP296 (mouse) (UniProt E9Q6W4).
T1 sequence: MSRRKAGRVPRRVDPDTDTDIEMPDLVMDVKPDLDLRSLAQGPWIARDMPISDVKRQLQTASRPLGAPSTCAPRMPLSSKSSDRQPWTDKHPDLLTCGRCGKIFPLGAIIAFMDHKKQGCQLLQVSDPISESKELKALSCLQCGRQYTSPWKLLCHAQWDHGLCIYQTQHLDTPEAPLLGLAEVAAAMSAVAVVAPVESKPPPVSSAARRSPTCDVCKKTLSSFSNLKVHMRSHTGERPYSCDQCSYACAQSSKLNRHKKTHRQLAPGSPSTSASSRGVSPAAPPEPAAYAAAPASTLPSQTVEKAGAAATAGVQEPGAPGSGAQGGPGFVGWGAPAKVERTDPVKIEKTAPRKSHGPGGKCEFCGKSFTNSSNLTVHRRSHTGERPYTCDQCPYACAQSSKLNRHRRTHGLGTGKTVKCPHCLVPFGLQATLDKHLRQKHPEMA
The test can be described thus: co-IP; Flag-ZFP296 or its deletion mutants coexpressed with Myc-G9a or Myc-GLP in HEK293T cells; nuclei extracted in 500 mM NaCl, 0.5% IGEPAL CA-630 with Cryonase nuclease, supernatant diluted 4-fold; magnetic beads with anti-Flag (or anti-Myc-tag) antibody, 3 h, 4 °C; western blot with anti-Myc-tag then anti-Flag-tag antibody.

With “Myc-G9a (from UniProt Q9Z148 1-1263) (enzyme)”, the binding result is “binds”.
